# Reference: publication PMC7819943, “Rice protein-binding microarrays: a tool to detect cis-acting elements near promoter regions in rice”
# The other results are listed elsewhere or left out.
# Target: T1, OsSMF1 (Oryza sativa, UniProt Q6ZLB0 1-436)
# T1 sequence: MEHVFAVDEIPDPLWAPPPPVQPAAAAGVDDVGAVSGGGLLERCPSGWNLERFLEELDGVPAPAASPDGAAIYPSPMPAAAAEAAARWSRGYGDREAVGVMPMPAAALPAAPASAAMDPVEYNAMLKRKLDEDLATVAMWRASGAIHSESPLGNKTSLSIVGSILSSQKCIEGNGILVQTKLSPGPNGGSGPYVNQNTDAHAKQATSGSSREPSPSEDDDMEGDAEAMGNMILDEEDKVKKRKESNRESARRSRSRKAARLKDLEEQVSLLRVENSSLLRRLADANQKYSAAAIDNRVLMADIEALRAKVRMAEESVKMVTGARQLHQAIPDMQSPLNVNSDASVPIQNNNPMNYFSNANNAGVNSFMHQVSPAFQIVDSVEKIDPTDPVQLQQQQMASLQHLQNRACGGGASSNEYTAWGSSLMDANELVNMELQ
# Assay: protein-binding microarray (RPBM); PBS, 2% BSA, 51.3 ng/ul salmon testes DNA, 50 uM zinc acetate, 200 nM TF, 25 C, 1 h; high values mean tight binding
# Settings: protein: recombinant; tags: N-terminal polyhistidine and DsRed monomer fusion (pET32a); chain copies: 2; label: CyDye5-dUTP incorporated in the synthesized complementary strand; 3' TTTTT single-stranded linker to array surface; dsDNA, one strand shown
# Procedure, shortened: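 Transcription factors, each fused N-terminally to a polyhistidine tag and DsRed, were expressed in E. coli BL21-CodonPlus and purified on Ni–NTA. A custom Agilent array was made double-stranded by primer extension with Cy5-dUTP and blocked with 2% BSA. It was incubated with 200 nM protein in PBS, 2% BSA, salmon testes DNA and 50 µM zinc acetate at 25 °C for 1 h, then washed. The binding signal is per-feature fluorescence intensity (arbitrary units) read on an Axon 4000B scanner.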
row,Sequence,binding signal
1,AGCGCCGACCGGCTCTGGACGCTGCGCGACGCGTGGCCACCGGAGTCACCTAGTGCAG,4190 fluorescence intensity (a.u.)
2,GACGGTTAGAGGCCACCGTGTCACCGTGCTTCTCCAATATCGGAGTCACCTAGTGCAG,3140 fluorescence intensity (a.u.)
3,CCCCGCGCCTTGATATTTGCAACTGCAAATTTGTCTATATCGGAGTCACCTAGTGCAG,3650 fluorescence intensity (a.u.)
4,TGCGCGCAGAGTTTGCAAGGCCAGGTCATCCATGCTCGCCCGGAGTCACCTAGTGCAG,5100 fluorescence intensity (a.u.)
5,TGCGCATCGCTTCTGAGCTCGATCTACGTCGTCCGGCCGGCGGAGTCACCTAGTGCAG,3160 fluorescence intensity (a.u.)
6,CACATATACAGCAGACAAAGCCCAAGAGCATCATCGATTCCGGAGTCACCTAGTGCAG,8030 fluorescence intensity (a.u.)
7,GCAGCCCGGCACATGACAGGGATCGCGTCCACCGACACATCGGAGTCACCTAGTGCAG,4370 fluorescence intensity (a.u.)
8,ATGTGGAAGGGGTAGAGTTGTAATTTTGCATATGTAACAACGGAGTCACCTAGTGCAG,3190 fluorescence intensity (a.u.)
9,CCTAATTGACAAATGATTTCACCACGTCCCTTTCCATTTTCGGAGTCACCTAGTGCAG,3910 fluorescence intensity (a.u.)
10,CTCCACTACTTGCATTGTTTATCTGCGTCATCGTTTCCTTCGGAGTCACCTAGTGCAG,8830 fluorescence intensity (a.u.)
11,AATTAATAAGTAGATGACGTGGATAAAATTAGAATTGATGCGGAGTCACCTAGTGCAG,13500 fluorescence intensity (a.u.)
12,CGAGCTAAGCCACTCCACCGCCGATTGATCGCGTCACGGCCGGAGTCACCTAGTGCAG,4540 fluorescence intensity (a.u.)
13,GCCAGACCAAACAGACACGTACTACATCCTGCAGCAAGCCCGGAGTCACCTAGTGCAG,5060 fluorescence intensity (a.u.)
14,AGCCCCACGCTCCGTCACACGCTGACTCAGCCGCCACGTACGGAGTCACCTAGTGCAG,25400 fluorescence intensity (a.u.)
15,TCATCCCAGCCGTCCACCTAATCCGACGCTCCAAACCCCACGGAGTCACCTAGTGCAG,3620 fluorescence intensity (a.u.)
16,CGCATGGATCCTAATGCGAATCTGACGTCTCTCCACTTGACGGAGTCACCTAGTGCAG,4210 fluorescence intensity (a.u.)
17,GGAGGTTAAGTGGACTTATTCCACCACCTCACGGGGTTTACGGAGTCACCTAGTGCAG,3520 fluorescence intensity (a.u.)
18,CCGAAAAGCGCCCGCAAACCCGCGTCGCGTCACCATGCCACGGAGTCACCTAGTGCAG,6300 fluorescence intensity (a.u.)
19,TGGGAAAAGGGAGTATAGAACACACCCTAATTCTTTAATACGGAGTCACCTAGTGCAG,30300 fluorescence intensity (a.u.)
20,ATATCTATCTGACATGTCACTTTAGTGTTCATGTGGCATGCGGAGTCACCTAGTGCAG,8720 fluorescence intensity (a.u.)
21,ACTCTTTATATCATCACCACAGATTCTCCCTCCACTTATACGGAGTCACCTAGTGCAG,3860 fluorescence intensity (a.u.)

# 2 records picked at random from those above, as already listed:
row,Sequence,binding signal
7,GCAGCCCGGCACATGACAGGGATCGCGTCCACCGACACATCGGAGTCACCTAGTGCAG,4370 fluorescence intensity (a.u.)
4,TGCGCGCAGAGTTTGCAAGGCCAGGTCATCCATGCTCGCCCGGAGTCACCTAGTGCAG,5100 fluorescence intensity (a.u.)

# Later entries.

row,Sequence,binding signal
1,GGATGCTAAGGTGTTTTGCTTACTCATGCTCCAAAATAGTCGGAGTCACCTAGTGCAG,7420 fluorescence intensity (a.u.)
2,ACTTGCGAGAAGAACTTCAGGGTGTGACACATGCCATGCGCGGAGTCACCTAGTGCAG,4350 fluorescence intensity (a.u.)
3,GCGCCTACGAGAGCACGCGGTGCGACGTGTGCGGGTCCGGCGGAGTCACCTAGTGCAG,3720 fluorescence intensity (a.u.)
4,TCTGTCTGTGGGTTGTATGAGCTGTCTTTATATCCGTCTGCGGAGTCACCTAGTGCAG,4120 fluorescence intensity (a.u.)
5,TACGGACTCCAAGACGCAGCGTGTGTATGACAGGTGGGACCGGAGTCACCTAGTGCAG,4250 fluorescence intensity (a.u.)
6,ATGATGTATGGCATGTTCTAGACTGTGCCACCGTTTGGAGCGGAGTCACCTAGTGCAG,3200 fluorescence intensity (a.u.)
7,AGTTAAGGGAGTCAGAGTGAACTTATTCCTCTATCAGCAGCGGAGTCACCTAGTGCAG,21600 fluorescence intensity (a.u.)
8,TGAATGACATGATTCGGCGTAACGTGACTGTCCCATTATCCGGAGTCACCTAGTGCAG,4070 fluorescence intensity (a.u.)
9,AACTTATACGTATAACCTTTATATACGTGTCCTTAACGATCGGAGTCACCTAGTGCAG,4720 fluorescence intensity (a.u.)
10,TCCATAAACATGCAAGACCAAATTCAACTTCTACAAGTTGCGGAGTCACCTAGTGCAG,3430 fluorescence intensity (a.u.)
11,GTGGTGATTTCATCAATTTTAAGATACGCCGGCTCGGTTTCGGAGTCACCTAGTGCAG,25600 fluorescence intensity (a.u.)
12,TGGGGCCGGATCGACCCGGGCCCACGTGTCAGCGTCTCCGCGGAGTCACCTAGTGCAG,15000 fluorescence intensity (a.u.)
13,TCTACACCTATTGTGATGTGGAATAATTCTCCTCAAACCTCGGAGTCACCTAGTGCAG,3230 fluorescence intensity (a.u.)
14,ACGGTAGGAGCTGCAGCGGTCGGGGTGGGAGCAGGGGTCGCGGAGTCACCTAGTGCAG,3440 fluorescence intensity (a.u.)
15,TCCACCCTCGCCGTGTCAAAGGACTCCAATGCGTCACAAACGGAGTCACCTAGTGCAG,3420 fluorescence intensity (a.u.)
16,GCCCGACGGTGACTGGACTCACTTAGCGGTGACTGGTTCGCGGAGTCACCTAGTGCAG,7480 fluorescence intensity (a.u.)
17,ATTGAGTACTAGTCCTGAATTTGATGACGTTTATCTTATCCGGAGTCACCTAGTGCAG,6860 fluorescence intensity (a.u.)
18,GTAATTGTATATGTGGATCACGTCACCTAGATTTACTTAACGGAGTCACCTAGTGCAG,3810 fluorescence intensity (a.u.)
19,GTCCCTCCATGCACGCCCAAATAGCCAGTCACCTCCGCTCCGGAGTCACCTAGTGCAG,3360 fluorescence intensity (a.u.)
20,TGATTAGTTCAGGTGGTGGTTTGGGCCTGTTGCAACGTGGCGGAGTCACCTAGTGCAG,5090 fluorescence intensity (a.u.)
21,CTATATTGTTCATGCCCTCGTGCGCGTACACAATCATAGTCGGAGTCACCTAGTGCAG,3360 fluorescence intensity (a.u.)
